{"source": "patent US6780986", "target": "GST-Z2-P123 (human) (UniProt Q9BWE0)", "assay": "gel shift multimers on DNA probe (self-association on DNA)", "note": "Results are given in words; binding and its absence hold for the method and conditions named. Some entries that bind do so weakly or less than the wild type. Tags and fused reporters may be left off the sequences shown."}
{"binder": "GST-Z2-P123 (protein, not shown: a dimerising Fc or GST) GGDAVDRPFQCACCGKRFRHKPNLIAHRRVHTGERPHQCPECGKRFTNKPYLTSHRRIHTGEKPYPCKECGRRFRHKPNLLSHSKIHKRSEGSAQAAPGPGSPQLPAGPQESAAEPTPAVPLKPAQEPPPGAPPEHPQDPIEAPPSL", "values": [{"measurement": "binding", "result": "binds"}]}
